Values from PubChem BioAssay AID1259425 (University of Nebraska Medical Center, 2018)
The whole screen tested about 14,000 reagents; this is a random part of them. Not all columns of the deposit are shown. Reagent sequences are not shown. Not given: the time to read-out.

Aim: 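Compare each knockdown with KSR1 silencing using changes in marker transcripts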 (primary screen)
System: HCT116 human colon cancer cells
Knock-down reagent: siRNA pool against human genes, 50 nM siRNA
Measured: 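After 50 nM siRNA pool, branched-DNA assay measures six marker transcripts per well, minus blank, normalised to the geometric mean of two housekeeping transcripts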
Scale: BNIP3L mRNA: higher = more BNIP3L transcript after knockdown; NDRG1 mRNA: higher = more NDRG1 transcript after knockdown

The opening 3 records, to show the layout:
{"Gene": "NFATC2IP", "PubChem SID": "SID364004195", "BNIP3L mRNA, set 1": 0.218, "NDRG1 mRNA, set 1": 0.655}
{"Gene": "CACNA2D2", "PubChem SID": "SID363996881", "BNIP3L mRNA, set 1": 0.104, "NDRG1 mRNA, set 1": 0.311}
{"Gene": "UBA1", "PubChem SID": "SID363994450", "BNIP3L mRNA, set 1": 0.123, "NDRG1 mRNA, set 1": 0.403}

Results, repeating the preview:
{"Gene": "NFATC2IP", "PubChem SID": "SID364004195", "BNIP3L mRNA, set 1": 0.218, "NDRG1 mRNA, set 1": 0.655}
{"Gene": "CACNA2D2", "PubChem SID": "SID363996881", "BNIP3L mRNA, set 1": 0.104, "NDRG1 mRNA, set 1": 0.311}
{"Gene": "UBA1", "PubChem SID": "SID363994450", "BNIP3L mRNA, set 1": 0.123, "NDRG1 mRNA, set 1": 0.403}
{"Gene": "STMN4", "PubChem SID": "SID364003447", "BNIP3L mRNA, set 1": 0.152, "NDRG1 mRNA, set 1": 0.167}
{"Gene": "HLA-F", "PubChem SID": "SID364001277", "BNIP3L mRNA, set 1": 0.0891, "NDRG1 mRNA, set 1": 0.197}
{"Gene": "HAUS5", "PubChem SID": "SID364005217", "BNIP3L mRNA, set 1": 0.103, "NDRG1 mRNA, set 1": 0.18}
{"Gene": "SPIB", "PubChem SID": "SID363994262", "BNIP3L mRNA, set 1": 0.133, "NDRG1 mRNA, set 1": 0.162}
{"Gene": "PZP", "PubChem SID": "SID363994020", "BNIP3L mRNA, set 1": 0.121, "NDRG1 mRNA, set 1": 0.269}
{"Gene": "MVK", "PubChem SID": "SID363991762", "BNIP3L mRNA, set 1": 0.153, "NDRG1 mRNA, set 1": 0.0578}
{"Gene": "C8orf76", "PubChem SID": "SID364004223", "BNIP3L mRNA, set 1": 0.0593, "NDRG1 mRNA, set 1": 0.22}
{"Gene": "TKT", "PubChem SID": "SID363992361", "BNIP3L mRNA, set 1": 0.0481, "NDRG1 mRNA, set 1": 0.236}
{"Gene": "PDLIM2", "PubChem SID": "SID364002154", "BNIP3L mRNA, set 1": 0.106, "NDRG1 mRNA, set 1": 0.261}
{"Gene": "HOXB6", "PubChem SID": "SID364001279", "BNIP3L mRNA, set 1": 0.126, "NDRG1 mRNA, set 1": 0.804}
{"Gene": "MAGEB4", "PubChem SID": "SID363993549", "BNIP3L mRNA, set 1": 0.0574, "NDRG1 mRNA, set 1": 0.445}
{"Gene": "ZNF274", "PubChem SID": "SID364000034", "BNIP3L mRNA, set 1": 0.0899, "NDRG1 mRNA, set 1": 0.612}
{"Gene": "KIAA1614", "PubChem SID": "SID364005184", "BNIP3L mRNA, set 1": 0.0958, "NDRG1 mRNA, set 1": 0.136}
{"Gene": "NF2", "PubChem SID": "SID363991601", "BNIP3L mRNA, set 1": 0.114, "NDRG1 mRNA, set 1": 0.159}
{"Gene": "MPDU1", "PubChem SID": "SID363995821", "BNIP3L mRNA, set 1": 0.186, "NDRG1 mRNA, set 1": 1.34}
{"Gene": "AP3S1", "PubChem SID": "SID363992568", "BNIP3L mRNA, set 1": 0.0738, "NDRG1 mRNA, set 1": 0.322}
{"Gene": "S100A8", "PubChem SID": "SID363994115", "BNIP3L mRNA, set 1": 0.0743, "NDRG1 mRNA, set 1": 0.0771}
{"Gene": "CHD6", "PubChem SID": "SID364003835", "BNIP3L mRNA, set 1": 0.187, "NDRG1 mRNA, set 1": 0.247}
{"Gene": "MMRN2", "PubChem SID": "SID364003031", "BNIP3L mRNA, set 1": 0.133, "NDRG1 mRNA, set 1": 0.175}
{"Gene": "HBEGF", "PubChem SID": "SID363993158", "BNIP3L mRNA, set 1": 0.0255, "NDRG1 mRNA, set 1": 0.171}
{"Gene": "GRB14", "PubChem SID": "SID363995469", "BNIP3L mRNA, set 1": 0.0841, "NDRG1 mRNA, set 1": 0.188}
{"Gene": "CFAP298", "PubChem SID": "SID364002130", "BNIP3L mRNA, set 1": 0.169, "NDRG1 mRNA, set 1": 0.317}
{"Gene": "SNX15", "PubChem SID": "SID363998422", "BNIP3L mRNA, set 1": 0.115, "NDRG1 mRNA, set 1": 0.132}
{"Gene": "ADGRL3", "PubChem SID": "SID363999374", "BNIP3L mRNA, set 1": 0.0975, "NDRG1 mRNA, set 1": 0.115}
{"Gene": "NPHP3", "PubChem SID": "SID364004763", "BNIP3L mRNA, set 1": 0.0266, "NDRG1 mRNA, set 1": 0.122}
